# In PubChem BioAssay AID504834 (National Center for Advancing Translational Sciences (NCATS), 2011):
# In all, about 320,000 compounds went through this assay and about 22,000 (6.9%) were called active. This list was built around the results that the source calls inconclusive (neither active nor inactive); the mix of calls is not that of the screen. Calls come from the whole dose curve; as a rule, active = well fitted inhibition curve with a large enough effect; inconclusive = small, poorly fitted or top-dose-only effect, or another doubt; inactive = no such curve, though single readings can be large or run the other way. Potencies beside an inconclusive call are fits to weak or partial responses and may not hold up.
# Test: Primary qHTS for delayed death inhibitors of the malarial parasite plastid, 96 hour incubation
# Conditions: P. falciparum luciferase reporter growth; series mostly up to 28.7 µM
# In short: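 Two-generation exposure (96 h) targets delayed-death phenotype. Reporter parasites carrying integrated firefly luciferase, in red cells at 2% hematocrit and 0.05% parasitemia final, kept at 37 C, 5% CO2; luminescence loss indicates inhibition.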
# Potency is the fitted concentration of half-maximal effect.
row,Compound,Potency
1,Cc1cc(C)c(S(=O)(=O)Nc2ccc(Cl)cn2)c(C)c1,inactive
2,CCc1ccc(OCC(=O)NNC(=S)NC(=O)C2CC2)c(Br)c1,"inconclusive: 18.5 µM [inhibitor, single point]"
3,CC1CCc2sc(C(=O)N/N=C/c3ccc(O)cc3)cc2C1 (configuration not stated),inactive
4,Cc1oc2c(c1C(=O)c1ccc(Cl)cc1)C(=O)C(=O)c1ccccc1-2,"inconclusive: 8.28 µM [inhibitor, partial curve, poor fit]"
5,CC(c1ccon1)N(C)C(=O)c1ccc2nc(Cc3cccc(Cl)c3)oc2c1 (configuration not stated),"inconclusive: 18.5 µM [inhibitor, single point]"
6,O=C(COc1ccc(Br)cc1)N1CCc2ccccc2C1,"inconclusive: 0.329 µM [inhibitor, partial curve, poor fit]"
7,C=CCc1c(N(CC)CC)nc(C)[nH]c1=O,"inconclusive: 0.0026 µM [inhibitor, full curve, poor fit]"
8,COc1cc(OC)c(OC)cc1CN1CCN(Cc2ccc(SC)cc2)CC1,inactive
9,O=C(O)CCn1cc(C=C2C(=O)NC(=S)NC2=O)c(-c2cc3ccccc3oc2=O)n1,inactive
10,Clc1cccc(-c2cc3nc4c(c(NCc5ccco5)n3n2)CCCC4)c1,"inconclusive: 18.5 µM [inhibitor, single point]"
11,C=CCn1c(COc2ccccc2OC)nc2ccccc21,"inconclusive: 10.4 µM [inhibitor, partial curve, poor fit]"
12,CN(CC(=O)Nc1ccccc1C(F)(F)F)C(=O)COc1ccccc1Cc1ccccc1,"inconclusive: 11.7 µM [inhibitor, single point]"
13,Cc1cc(C)n2c(nc3ccccc32)c1C(=O)NN,"inconclusive: 0.147 µM [inhibitor, full curve, poor fit]"
14,Cc1cc(C)c(NC(=O)CS(=O)CC(=O)NCCN2CCCCCC2)c(C)c1 (configuration not stated),inactive
15,Cc1ccc(S(=O)(=O)N2CCC(C(=O)NCC3CCCCC3)CC2)cc1,"inconclusive: 8.28 µM [inhibitor, partial curve]"
16,S=c1nc[nH]c2c1ncn2C1CCCC1,"inconclusive: 4.15 µM [inhibitor, partial curve]"
17,Cc1ccc(S(=O)(=O)N2CCCC(C(=O)NCCc3ccccc3)C2)cc1 (configuration not stated),"inconclusive: 11.7 µM [inhibitor, single point]"
18,Cc1cccc(C(=O)NC(=S)NNC(=O)c2ccc(Cl)cc2)c1,"inconclusive: 18.5 µM [inhibitor, single point]"
19,O=C(NC1=NCCS1)c1cc(-c2ccc(-c3ccccc3)cc2)nc2ccccc12,inactive
20,O=c1c2ccccc2nc(/C=C/c2ccccc2)n1-c1ccc(O)cc1,"inconclusive: 16.5 µM [inhibitor, single point]"
21,Cn1c(=NC(=O)CN2C(=O)C3CC=CCC3C2=O)sc2ccccc21 (configuration not stated),"inconclusive: 0.0262 µM [inhibitor, full curve, poor fit]"

# Part of the list above in a different format:
row | Compound | Potency
10 | Clc1cccc(-c2cc3nc4c(c(NCc5ccco5)n3n2)CCCC4)c1 | inconclusive: 18.5 µM [inhibitor, single point]
11 | C=CCn1c(COc2ccccc2OC)nc2ccccc21 | inconclusive: 10.4 µM [inhibitor, partial curve, poor fit]
12 | CN(CC(=O)Nc1ccccc1C(F)(F)F)C(=O)COc1ccccc1Cc1ccccc1 | inconclusive: 11.7 µM [inhibitor, single point]

# (more compounds)

row,Compound,Potency
1,COc1ccc(N(CC(=O)Nc2ccccc2C(=O)NCc2ccco2)S(C)(=O)=O)cc1,"inconclusive: 18.5 µM [inhibitor, single point]"
2,COc1ccccc1N1CCN(Cc2ccc(-c3ccccc3[N+](=O)[O-])o2)CC1,"inconclusive: 18.5 µM [inhibitor, single point]"
3,CCCn1c(C)cc(C=O)c1C,"inconclusive: 10.4 µM [inhibitor, partial curve, poor fit]"
4,O=c1c2cc(N3CCOCC3)ccc2[nH]c(=S)n1Cc1ccccc1Cl,"inconclusive: 3.29 µM [inhibitor, full curve, poor fit]"
5,O=C1NC(=O)C(c2cn(-c3ccccc3)nc2-c2ccc(F)cc2)N1 (configuration not stated),"inconclusive: 18.5 µM [inhibitor, single point]"
6,COc1cc(-c2noc(C)c2/C=C/c2ccc(C(=O)O)cc2)cc(OC)c1OC,"inconclusive: 1.47 µM [inhibitor, full curve, poor fit]"
7,COc1ccc(Cn2c(=O)[nH]c3cc(C(=O)Nc4ccc(N5CCN(C)CC5)cc4)ccc32)cc1,"inconclusive: 10.4 µM [inhibitor, partial curve]"
8,Cc1cc(-c2ccc(C)c(S(=O)(=O)N3CCN(c4ccc([N+](=O)[O-])cc4)CC3)c2)on1,"inconclusive: 0.37 µM [inhibitor, full curve]"
9,COc1ccc(OCC(=O)Nc2cccc(-c3nc4ccccc4[nH]3)c2)cc1,active: 11.7 µM
10,COc1ccccc1C1=NOC(Cn2c(NCCOCCO)nc3c2c(=O)n(C)c(=O)n3C)C1 (configuration not stated),inactive
11,COc1ccc2[nH]cc(/C=C(/C#N)S(=O)(=O)c3ccccc3)c2c1,"inconclusive: 18.5 µM [inhibitor, single point]"
12,COc1ccc(CCN(C)C(=O)CN2C(=O)NC3(CCCc4ccccc43)C2=O)cc1OC (configuration not stated),"inconclusive: 10.4 µM [inhibitor, single point]"
13,Cn1c2ccccc2c(=O)c2c(O)cccc21,inactive
14,O=C(CN1CCCCC1)c1cccc(Br)c1,"inconclusive: 14.7 µM [inhibitor, single point]"
15,COCCn1c(C)cc(C(=O)COC(=O)Cc2n[nH]c(=O)c3ccccc23)c1C,inactive
16,CCCc1ccc(Oc2c(-c3ccc(O)c(C)c3O)n[nH]c2C)cc1,"inconclusive: 4.15 µM [inhibitor, partial curve, poor fit]"
17,O=C1CCCN1CCC12CC3CC(CC(C3)C1)C2,"inconclusive: 18.5 µM [inhibitor, single point]"
18,Cc1[nH]n(C)c(=O)c1N=Nc1ccc(S(C)(=O)=O)cc1,"inconclusive: 7.38 µM [inhibitor, partial curve]"
19,O=C(COc1ccccc1[N+](=O)[O-])OC1CCS(=O)(=O)C1 (configuration not stated),"inconclusive: 18.5 µM [inhibitor, single point]"
20,Cc1sc2nc(CN(C(=O)NCc3ccccc3)C3CCCC3)[nH]c(=O)c2c1C,"inconclusive: 4.15 µM [inhibitor, single point]"
21,OCc1ccnc2c(O)cccc12,"inconclusive: 2.08 µM [inhibitor, full curve, poor fit]"
